Laboratory results taken from publication PMC10218704, “A Novel Blood–Brain Barrier-Penetrating and Vascular-Targeting Chimeric Peptide Inhibits Glioma Angiogenesis” (International Journal of Molecular Sciences, 2023).
Results are given in words; binding and its absence hold for the method and conditions named. Some binding calls cover weakened binding; strength is not graded here.

Protein sequences, listed by entry. Tags and fused reporters are not part of them. Residues count along the entry.
UniProt P35968, residues 20-764: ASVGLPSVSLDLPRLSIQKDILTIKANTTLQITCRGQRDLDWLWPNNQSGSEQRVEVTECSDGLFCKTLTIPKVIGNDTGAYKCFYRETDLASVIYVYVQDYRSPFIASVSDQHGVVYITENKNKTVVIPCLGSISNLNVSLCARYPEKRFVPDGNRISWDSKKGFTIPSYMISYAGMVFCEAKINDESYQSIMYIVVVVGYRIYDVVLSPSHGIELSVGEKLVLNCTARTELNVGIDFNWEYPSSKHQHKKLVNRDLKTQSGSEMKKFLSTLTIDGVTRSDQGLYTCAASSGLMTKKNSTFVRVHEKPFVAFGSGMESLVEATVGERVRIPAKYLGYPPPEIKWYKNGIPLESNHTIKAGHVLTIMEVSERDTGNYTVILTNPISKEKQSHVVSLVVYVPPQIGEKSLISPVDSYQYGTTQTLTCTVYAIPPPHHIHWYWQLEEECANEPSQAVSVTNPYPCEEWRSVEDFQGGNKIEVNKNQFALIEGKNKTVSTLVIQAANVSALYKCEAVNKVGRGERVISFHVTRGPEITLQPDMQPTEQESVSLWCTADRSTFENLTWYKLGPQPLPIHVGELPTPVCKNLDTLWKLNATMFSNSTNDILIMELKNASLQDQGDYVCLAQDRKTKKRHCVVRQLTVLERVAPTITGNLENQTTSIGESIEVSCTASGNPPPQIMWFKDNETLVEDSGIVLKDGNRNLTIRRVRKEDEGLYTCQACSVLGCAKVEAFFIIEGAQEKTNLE

Legend:
[1] = target: Purified recombinant human VEGFR-2 receptor protein (human) (UniProt P35968); assay: SPR; both purified
[2] = target: T1, Purified recombinant human NRP-1 receptor protein (human) (UniProt O14786); assay: SPR; both purified
T1 sequence: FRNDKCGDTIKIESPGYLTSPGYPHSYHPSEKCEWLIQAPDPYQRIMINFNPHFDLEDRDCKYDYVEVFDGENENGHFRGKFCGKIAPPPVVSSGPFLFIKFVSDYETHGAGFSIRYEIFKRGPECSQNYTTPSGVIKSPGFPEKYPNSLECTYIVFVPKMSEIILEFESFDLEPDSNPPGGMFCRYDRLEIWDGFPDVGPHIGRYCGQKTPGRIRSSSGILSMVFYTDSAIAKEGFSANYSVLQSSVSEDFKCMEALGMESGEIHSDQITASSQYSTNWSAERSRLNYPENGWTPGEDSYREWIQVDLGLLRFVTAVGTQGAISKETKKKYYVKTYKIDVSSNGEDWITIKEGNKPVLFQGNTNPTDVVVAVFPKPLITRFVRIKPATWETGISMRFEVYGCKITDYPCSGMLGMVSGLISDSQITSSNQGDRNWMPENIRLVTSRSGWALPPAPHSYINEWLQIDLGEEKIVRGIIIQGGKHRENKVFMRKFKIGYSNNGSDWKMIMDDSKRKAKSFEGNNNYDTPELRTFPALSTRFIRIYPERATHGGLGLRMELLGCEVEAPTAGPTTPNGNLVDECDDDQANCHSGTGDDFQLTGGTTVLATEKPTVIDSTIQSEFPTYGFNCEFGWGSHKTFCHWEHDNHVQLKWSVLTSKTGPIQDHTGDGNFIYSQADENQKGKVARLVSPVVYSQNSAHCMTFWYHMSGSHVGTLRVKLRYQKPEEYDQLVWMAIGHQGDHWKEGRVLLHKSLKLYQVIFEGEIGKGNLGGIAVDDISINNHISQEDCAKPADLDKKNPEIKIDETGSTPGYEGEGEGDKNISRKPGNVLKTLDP

## RKKRRQRRRCATWLPPR [TAT-AT7]
[1]
  binding: binds
[2]
  binding: binds
